These are yes or no findings as the source states them, for the method shown. In cells and extracts the contact can be indirect. Some results given as binding are weak or reduced against the parent protein; the word gives no strength.

The chains behind the UniProt entries cited, without tags or fusion partners. Residues count along the entry.
UniProt P11021, residues 19-654: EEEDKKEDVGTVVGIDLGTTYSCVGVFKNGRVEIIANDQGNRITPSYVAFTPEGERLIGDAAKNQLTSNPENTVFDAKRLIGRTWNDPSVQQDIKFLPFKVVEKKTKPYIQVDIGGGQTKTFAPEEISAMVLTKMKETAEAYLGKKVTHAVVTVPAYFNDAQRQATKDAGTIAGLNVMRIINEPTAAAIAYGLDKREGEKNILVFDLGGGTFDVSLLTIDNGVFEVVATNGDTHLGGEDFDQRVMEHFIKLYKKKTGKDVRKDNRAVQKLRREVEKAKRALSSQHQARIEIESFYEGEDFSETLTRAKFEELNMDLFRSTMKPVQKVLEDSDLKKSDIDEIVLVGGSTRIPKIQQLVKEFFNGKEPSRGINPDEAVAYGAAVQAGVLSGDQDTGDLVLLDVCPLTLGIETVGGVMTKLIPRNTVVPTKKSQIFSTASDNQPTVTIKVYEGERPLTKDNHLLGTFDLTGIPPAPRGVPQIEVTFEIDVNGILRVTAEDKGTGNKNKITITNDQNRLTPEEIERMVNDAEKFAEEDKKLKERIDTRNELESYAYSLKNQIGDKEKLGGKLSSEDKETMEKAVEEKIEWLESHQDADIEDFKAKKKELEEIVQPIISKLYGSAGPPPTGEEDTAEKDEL

The target of the experiment is T1, MTJ1 (human (endogenous in H460)) (UniProt Q96KC8).
T1 sequence: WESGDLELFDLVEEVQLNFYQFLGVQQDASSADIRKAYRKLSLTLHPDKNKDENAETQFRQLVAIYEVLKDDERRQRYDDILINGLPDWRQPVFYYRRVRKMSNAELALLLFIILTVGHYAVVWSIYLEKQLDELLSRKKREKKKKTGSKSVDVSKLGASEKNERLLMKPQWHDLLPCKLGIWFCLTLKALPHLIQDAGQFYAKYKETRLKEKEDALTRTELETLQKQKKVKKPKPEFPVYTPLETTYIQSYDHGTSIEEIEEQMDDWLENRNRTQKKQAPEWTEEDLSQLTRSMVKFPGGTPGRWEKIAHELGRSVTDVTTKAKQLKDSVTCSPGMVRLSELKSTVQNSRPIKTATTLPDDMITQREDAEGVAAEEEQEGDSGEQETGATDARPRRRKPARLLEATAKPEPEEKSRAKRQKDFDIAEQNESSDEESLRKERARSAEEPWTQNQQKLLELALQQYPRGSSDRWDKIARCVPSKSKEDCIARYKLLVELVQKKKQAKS
Kind of experiment: co-IP; Dynabeads Protein G with anti-GRP78 or anti-MTJ1 antibody; RIPA lysates of H460 cells, untreated or treated with 5 µM cisplatin for 6 days (senescent); 4 °C overnight; Western blot for MTJ1 or GRP78. In general terms: Immunoblotting shows a protein as a band on a membrane.

For “Glucose-regulated protein 78 (GRP78) (from UniProt P11021 19-654)”, the binding entry was “binds”.

For the origin of these results see PMC9687146.
